Results deposited as PubChem BioAssay AID720505 (Drosophila RNAi Screening Center, 2013)
The screen tested about 20,000 reagents; shown is an unselected part of those that have a named target and a result. In the full data, about 2,100 (10%) were called active. 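Raw plate signals without normalisation; calls rest on control-based scores that were not deposited; replicate 2 separates called from uncalled poorly.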 Not given: the amount of reagent, the time to read-out.

Assay: 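Genes needed for store-operated calcium entry in fly cells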 (primary screen)
Cell system: Drosophila S2R+ cells
Reagent: long dsRNA against Drosophila genes
Challenge: thapsigargin (2 µM) in calcium-free buffer to empty internal stores, then 2 mM calcium added back
Read-out: 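Stores emptied by 2 µM thapsigargin without calcium, then 2 mM calcium re-added; fluo-4 fluorescence followed by FLIPR in 384-well plates, per-well averaged endpoint, raw; two screen passes, some wells retested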
Reading the numbers: calcium signal and retest calcium signal: higher = more calcium entry after store depletion
Rule for the call: 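Knock-downs counted as hits when calcium entry dropped relative to STIM1 positive and Rho1 negative controls present on each plate; roughly 1500 genes called, with reductions of differing size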
Calls: active = called as lowering calcium entry; inactive = not called

no.	predicted target	amplicon	calcium signal, replicate 1	calcium signal, replicate 2	retest calcium signal, replicate 1	retest calcium signal, replicate 2	Call
1	CG1840	DRSC19806	137	149			inactive
2	ken	DRSC04696	102	92.9			inactive
3	ken	DRSC23196	98.4	145			inactive
4	Rcc1	DRSC09684	59.8	105			active
5	Bet5	DRSC14600	106	94.8			inactive
6	spel1	DRSC03617	74.2	108			inactive
7	CG18661	DRSC02690	120	144			inactive
8	cal1	DRSC15725	151	224			inactive
9	CG10026	DRSC02010	162	77.3			inactive
10	CG2964	DRSC00554	145	88			inactive
11	Slh	DRSC00407	174	156			inactive
12	Slh	DRSC00789	181	104			inactive
13	TotE	DRSC21355	117	104			inactive
14	CG3795	DRSC18593	76.8	117			inactive
15	CG15142	DRSC02443	80.4	127			active
16	CG16956	DRSC02544	127	138			inactive
17	CG5665	DRSC11783	68.5	105			active
18	CG30495	DRSC06703	174	131			inactive
19	tbrd-1	DRSC14601	151	155			inactive
20	hlk	DRSC05021	102	176			inactive
21	hlk	DRSC05022	120	188			inactive
22	CG31954	DRSC00580	133	287			inactive
23	Gadd45	DRSC06033	152	126			inactive
24	Dph5	DRSC16653	186	233			inactive
25	CG31826	DRSC03357	107	167			inactive
26	SoxN	DRSC03440	85.9	90.5	102	140	inactive
27	SoxN	DRSC21779	121	106			inactive
28	CG18266	DRSC02659	105	161			inactive
29	CG30075	DRSC05484	110	85.5			inactive
30	CG30020	DRSC06252	94	168			inactive
31	CG30020	DRSC06730	102	107			inactive
32	Blm	DRSC16911	123	85.6			inactive
33	Sarm	DRSC10038	100	83.7			inactive
34	Sarm	DRSC10039	98.2	74			inactive
35	Sarm	DRSC10927	97.1	84.9			inactive
36	Sarm	DRSC10929	63.5	86			active

5 entries from above, set out differently:
| predicted target | amplicon | calcium signal, replicate 1 | calcium signal, replicate 2 | retest calcium signal, replicate 1 | retest calcium signal, replicate 2 | Call |
| --- | --- | --- | --- | --- | --- | --- |
| CG30020 | DRSC06730 | 102 | 107 | – | – | inactive |
| Blm | DRSC16911 | 123 | 85.6 | – | – | inactive |
| Sarm | DRSC10038 | 100 | 83.7 | – | – | inactive |
| Sarm | DRSC10039 | 98.2 | 74 | – | – | inactive |
| Sarm | DRSC10927 | 97.1 | 84.9 | – | – | inactive |
